# Test results reported in the supplement of paper PMC10849652.
# Chains of the proteins cited; added tags and fusions are not shown. Lines headed by an entry give the natural chain unless they say otherwise; changes in a name come on top.
# UniProt Q9BTF0: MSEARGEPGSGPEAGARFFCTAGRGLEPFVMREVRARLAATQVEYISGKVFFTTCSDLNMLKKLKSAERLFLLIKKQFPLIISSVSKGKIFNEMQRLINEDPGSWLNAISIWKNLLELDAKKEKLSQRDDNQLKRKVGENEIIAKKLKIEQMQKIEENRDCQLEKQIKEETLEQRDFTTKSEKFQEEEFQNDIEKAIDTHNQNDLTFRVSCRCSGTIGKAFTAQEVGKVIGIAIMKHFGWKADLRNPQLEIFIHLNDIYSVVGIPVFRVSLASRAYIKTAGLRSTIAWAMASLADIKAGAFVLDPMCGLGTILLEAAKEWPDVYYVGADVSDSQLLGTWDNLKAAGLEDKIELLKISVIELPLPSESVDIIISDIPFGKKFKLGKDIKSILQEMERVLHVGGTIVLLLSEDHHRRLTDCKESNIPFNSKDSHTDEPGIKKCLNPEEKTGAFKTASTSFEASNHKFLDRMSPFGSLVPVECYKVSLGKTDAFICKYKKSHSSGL
# UniProt Q9BXJ8: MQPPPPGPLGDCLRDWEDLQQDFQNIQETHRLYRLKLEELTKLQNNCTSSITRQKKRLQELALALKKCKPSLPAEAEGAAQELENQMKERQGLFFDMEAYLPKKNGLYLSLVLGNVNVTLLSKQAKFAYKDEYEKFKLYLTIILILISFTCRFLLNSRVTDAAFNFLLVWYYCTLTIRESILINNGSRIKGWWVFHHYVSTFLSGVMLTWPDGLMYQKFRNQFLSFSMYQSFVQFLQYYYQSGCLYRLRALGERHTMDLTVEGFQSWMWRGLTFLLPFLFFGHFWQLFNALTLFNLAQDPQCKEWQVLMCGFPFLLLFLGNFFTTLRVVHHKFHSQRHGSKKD
# UniProt Q9NPL8: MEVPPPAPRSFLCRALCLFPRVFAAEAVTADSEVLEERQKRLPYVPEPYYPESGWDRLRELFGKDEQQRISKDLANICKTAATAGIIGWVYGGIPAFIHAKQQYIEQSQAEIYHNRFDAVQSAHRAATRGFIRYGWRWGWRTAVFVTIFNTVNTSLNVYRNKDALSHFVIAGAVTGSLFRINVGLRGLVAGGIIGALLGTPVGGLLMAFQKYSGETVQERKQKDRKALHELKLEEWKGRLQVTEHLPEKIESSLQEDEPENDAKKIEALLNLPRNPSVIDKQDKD
# UniProt Q9H7F4: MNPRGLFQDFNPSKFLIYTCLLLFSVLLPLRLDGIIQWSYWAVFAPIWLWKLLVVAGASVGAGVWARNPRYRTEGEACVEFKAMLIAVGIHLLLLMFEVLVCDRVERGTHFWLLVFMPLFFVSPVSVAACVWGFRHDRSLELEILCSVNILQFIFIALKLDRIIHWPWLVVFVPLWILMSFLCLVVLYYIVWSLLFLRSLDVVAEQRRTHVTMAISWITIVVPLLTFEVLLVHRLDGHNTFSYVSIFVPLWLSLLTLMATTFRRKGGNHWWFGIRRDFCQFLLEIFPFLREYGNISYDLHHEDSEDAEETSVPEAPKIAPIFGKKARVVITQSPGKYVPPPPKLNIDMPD
# UniProt Q92544: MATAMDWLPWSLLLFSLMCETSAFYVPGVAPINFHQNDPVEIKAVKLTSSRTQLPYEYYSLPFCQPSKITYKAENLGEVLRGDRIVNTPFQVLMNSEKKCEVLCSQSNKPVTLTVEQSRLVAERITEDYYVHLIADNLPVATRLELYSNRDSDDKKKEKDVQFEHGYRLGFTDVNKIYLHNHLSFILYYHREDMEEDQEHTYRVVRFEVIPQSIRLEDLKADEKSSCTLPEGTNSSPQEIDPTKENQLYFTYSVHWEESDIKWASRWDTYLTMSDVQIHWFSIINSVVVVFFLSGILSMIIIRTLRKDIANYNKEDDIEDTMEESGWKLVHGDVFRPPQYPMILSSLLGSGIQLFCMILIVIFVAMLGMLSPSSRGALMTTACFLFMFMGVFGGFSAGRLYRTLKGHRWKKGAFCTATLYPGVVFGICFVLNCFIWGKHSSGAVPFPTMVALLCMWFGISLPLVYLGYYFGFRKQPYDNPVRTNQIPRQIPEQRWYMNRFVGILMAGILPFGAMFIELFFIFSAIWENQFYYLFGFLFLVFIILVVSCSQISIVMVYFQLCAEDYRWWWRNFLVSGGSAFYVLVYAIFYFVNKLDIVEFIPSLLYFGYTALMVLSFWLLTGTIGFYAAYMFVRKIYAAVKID
# UniProt Q5U3C3: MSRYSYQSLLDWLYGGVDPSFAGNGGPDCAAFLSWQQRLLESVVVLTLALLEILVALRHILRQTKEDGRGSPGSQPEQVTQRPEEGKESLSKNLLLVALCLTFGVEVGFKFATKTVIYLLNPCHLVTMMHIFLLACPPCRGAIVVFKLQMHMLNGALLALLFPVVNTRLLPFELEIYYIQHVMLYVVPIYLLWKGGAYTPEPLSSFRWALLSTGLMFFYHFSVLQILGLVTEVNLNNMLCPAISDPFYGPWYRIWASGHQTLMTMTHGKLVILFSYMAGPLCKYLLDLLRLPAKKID
# UniProt Q96DC7: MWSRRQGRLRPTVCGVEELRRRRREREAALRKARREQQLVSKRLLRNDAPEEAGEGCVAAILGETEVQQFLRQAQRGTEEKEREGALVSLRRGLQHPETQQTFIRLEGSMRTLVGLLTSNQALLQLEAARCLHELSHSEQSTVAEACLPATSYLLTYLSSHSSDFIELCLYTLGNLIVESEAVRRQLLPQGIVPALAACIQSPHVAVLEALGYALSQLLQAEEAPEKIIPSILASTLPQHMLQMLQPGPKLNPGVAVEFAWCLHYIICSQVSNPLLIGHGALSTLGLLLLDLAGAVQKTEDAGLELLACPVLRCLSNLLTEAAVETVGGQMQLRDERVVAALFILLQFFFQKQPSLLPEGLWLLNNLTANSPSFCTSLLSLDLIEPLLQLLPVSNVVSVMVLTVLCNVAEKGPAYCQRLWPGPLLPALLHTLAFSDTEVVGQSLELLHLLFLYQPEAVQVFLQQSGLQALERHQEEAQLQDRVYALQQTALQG
# UniProt Q04727: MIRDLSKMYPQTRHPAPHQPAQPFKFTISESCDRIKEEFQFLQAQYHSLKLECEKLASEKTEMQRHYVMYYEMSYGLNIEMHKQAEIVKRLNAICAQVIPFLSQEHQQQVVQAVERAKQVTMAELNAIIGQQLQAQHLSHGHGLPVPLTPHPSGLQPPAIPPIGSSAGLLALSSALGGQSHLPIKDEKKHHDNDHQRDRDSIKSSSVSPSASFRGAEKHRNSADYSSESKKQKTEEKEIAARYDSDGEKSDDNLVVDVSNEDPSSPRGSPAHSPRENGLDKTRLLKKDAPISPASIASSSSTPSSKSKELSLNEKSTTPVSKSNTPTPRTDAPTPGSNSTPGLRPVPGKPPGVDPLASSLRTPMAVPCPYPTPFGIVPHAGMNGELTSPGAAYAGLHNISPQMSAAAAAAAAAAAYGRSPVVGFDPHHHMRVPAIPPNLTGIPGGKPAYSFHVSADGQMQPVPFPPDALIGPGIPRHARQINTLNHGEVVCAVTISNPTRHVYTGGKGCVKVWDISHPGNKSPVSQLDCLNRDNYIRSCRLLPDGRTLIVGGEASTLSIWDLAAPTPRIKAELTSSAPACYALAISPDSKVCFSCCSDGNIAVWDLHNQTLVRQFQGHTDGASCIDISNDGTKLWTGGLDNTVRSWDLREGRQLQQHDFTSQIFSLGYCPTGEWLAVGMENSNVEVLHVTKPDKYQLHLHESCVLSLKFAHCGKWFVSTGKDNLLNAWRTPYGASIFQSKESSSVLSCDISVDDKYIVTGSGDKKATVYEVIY
# UniProt Q96RS0: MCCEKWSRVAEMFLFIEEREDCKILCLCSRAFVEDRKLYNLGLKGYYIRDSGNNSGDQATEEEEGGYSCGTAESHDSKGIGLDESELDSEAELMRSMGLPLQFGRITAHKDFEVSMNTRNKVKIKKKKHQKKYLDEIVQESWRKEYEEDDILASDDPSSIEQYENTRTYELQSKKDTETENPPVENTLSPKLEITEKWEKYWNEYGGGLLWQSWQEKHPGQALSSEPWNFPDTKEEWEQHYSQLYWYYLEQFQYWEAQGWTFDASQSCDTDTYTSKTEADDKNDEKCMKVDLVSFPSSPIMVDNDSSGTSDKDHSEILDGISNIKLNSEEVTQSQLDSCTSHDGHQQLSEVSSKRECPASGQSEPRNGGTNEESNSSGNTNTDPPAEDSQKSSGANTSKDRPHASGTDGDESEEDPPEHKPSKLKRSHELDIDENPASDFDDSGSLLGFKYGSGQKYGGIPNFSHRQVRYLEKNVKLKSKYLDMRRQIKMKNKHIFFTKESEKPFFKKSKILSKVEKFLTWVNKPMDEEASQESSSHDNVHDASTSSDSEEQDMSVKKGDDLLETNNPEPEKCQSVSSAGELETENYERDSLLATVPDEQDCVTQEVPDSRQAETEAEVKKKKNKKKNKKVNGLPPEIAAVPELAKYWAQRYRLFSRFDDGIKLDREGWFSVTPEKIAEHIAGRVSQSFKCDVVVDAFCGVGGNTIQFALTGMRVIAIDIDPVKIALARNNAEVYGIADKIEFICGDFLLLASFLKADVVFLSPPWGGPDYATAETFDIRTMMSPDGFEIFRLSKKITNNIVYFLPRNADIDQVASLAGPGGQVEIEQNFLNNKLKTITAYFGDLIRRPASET
# UniProt Q9H061: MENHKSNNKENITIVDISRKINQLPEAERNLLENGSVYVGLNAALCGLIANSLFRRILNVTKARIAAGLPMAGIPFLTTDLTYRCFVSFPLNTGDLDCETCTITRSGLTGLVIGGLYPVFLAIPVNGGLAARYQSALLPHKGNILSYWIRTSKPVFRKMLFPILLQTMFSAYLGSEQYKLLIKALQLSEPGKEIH
# UniProt Q9Y3A6: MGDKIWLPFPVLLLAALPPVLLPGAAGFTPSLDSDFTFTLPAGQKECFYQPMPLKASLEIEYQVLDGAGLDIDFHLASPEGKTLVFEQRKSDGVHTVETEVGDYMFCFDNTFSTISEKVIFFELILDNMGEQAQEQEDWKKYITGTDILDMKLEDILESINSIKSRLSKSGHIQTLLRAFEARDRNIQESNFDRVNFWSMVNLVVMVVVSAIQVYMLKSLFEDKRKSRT
# UniProt Q9Y2S6, whole entry, looked up: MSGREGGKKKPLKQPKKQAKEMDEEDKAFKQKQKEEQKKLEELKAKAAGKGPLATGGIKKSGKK
# UniProt O43615: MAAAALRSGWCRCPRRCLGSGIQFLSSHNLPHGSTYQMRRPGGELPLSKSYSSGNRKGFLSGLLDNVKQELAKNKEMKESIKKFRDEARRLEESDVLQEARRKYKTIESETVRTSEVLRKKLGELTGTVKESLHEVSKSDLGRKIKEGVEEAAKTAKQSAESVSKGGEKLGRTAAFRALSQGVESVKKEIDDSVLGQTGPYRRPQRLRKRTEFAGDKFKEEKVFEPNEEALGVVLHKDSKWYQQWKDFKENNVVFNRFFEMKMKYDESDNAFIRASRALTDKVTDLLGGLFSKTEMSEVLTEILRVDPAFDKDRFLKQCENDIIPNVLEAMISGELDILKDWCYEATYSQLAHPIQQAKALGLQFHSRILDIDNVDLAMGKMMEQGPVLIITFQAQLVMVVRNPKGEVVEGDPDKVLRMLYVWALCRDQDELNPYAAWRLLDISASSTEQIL
# UniProt Q5T1C6: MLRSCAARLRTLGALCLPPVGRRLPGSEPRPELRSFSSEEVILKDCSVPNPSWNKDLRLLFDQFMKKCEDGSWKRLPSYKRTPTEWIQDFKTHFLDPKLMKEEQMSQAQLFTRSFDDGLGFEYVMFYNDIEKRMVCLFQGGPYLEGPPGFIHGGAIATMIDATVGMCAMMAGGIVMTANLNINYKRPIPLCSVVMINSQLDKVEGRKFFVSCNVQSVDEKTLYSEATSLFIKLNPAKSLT
# UniProt O75663: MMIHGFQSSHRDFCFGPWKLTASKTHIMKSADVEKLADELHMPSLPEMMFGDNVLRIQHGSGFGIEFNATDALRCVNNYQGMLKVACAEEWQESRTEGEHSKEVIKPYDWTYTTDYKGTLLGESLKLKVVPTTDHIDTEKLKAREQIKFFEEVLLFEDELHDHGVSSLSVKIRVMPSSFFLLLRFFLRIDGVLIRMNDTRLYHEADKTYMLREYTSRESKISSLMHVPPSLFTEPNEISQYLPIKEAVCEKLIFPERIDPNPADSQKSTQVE
# UniProt O60830: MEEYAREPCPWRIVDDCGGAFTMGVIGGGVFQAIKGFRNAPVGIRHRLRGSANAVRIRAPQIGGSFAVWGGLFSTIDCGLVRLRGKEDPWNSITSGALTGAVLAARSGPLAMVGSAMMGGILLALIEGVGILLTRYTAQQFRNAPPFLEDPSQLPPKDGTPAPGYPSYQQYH
# UniProt Q6PL24: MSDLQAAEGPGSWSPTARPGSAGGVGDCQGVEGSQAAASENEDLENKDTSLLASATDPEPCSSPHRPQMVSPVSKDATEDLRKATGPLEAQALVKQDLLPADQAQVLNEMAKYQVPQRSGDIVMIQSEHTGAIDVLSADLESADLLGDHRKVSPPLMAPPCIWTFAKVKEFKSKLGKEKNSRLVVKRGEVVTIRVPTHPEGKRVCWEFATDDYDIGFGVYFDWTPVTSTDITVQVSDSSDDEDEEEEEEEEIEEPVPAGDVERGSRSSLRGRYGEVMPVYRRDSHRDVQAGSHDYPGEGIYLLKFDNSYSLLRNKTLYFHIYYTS
# This is one part of the list.
# Compound: CS(=O)(=O)CCNCc1ccc(-c2ccc3ncnc(Nc4ccc(OCc5cccc(F)c5)c(Cl)c4)c3c2)o1 [lapatinib]
# Assay: log2 fold change, soluble protein after heating vs DMSO (PISA); higher = thermal stabilisation; K562 lysate, 10 uM; active = over 0.2 and 3.5 SD of the protein, either way, in both replicates (recomputed)
# Procedure, shortened: (§1)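 To prepare the extract, K562 pellets were dounce-homogenised in PBS pH 7.4 with 1 mM MgCl2, giving crude material at 1 mg/mL protein. This was treated with 10 μM compound for 30 min, then heated in aliquots for 3 min over 48°C-58°C before pooling and addition of NP-40 to 0.5% at 4°C. Centrifugation at 21,000xg for 90 min left soluble protein in the supernatant, which TMTpro 16plex LC-MS/MS quantified with equalised channel sums. Results are log-two fold changes in thermal stability compared with solvent controls, from duplicates.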
row,Target,log2 fold change
1,TICAM2 isoform 2 (UniProt Q86XR7),inactive: -0.039
2,THUMPD2 (UniProt Q9BTF0),inactive: 0.028
3,TMCO1 (UniProt Q9UM00),inactive: -0.043
4,TGOLN2 isoform 7 (UniProt O43493),inactive: -0.007
5,TMBIM1 (UniProt Q969X1),inactive: 0.065
6,TMEM120A (UniProt Q9BXJ8),inactive: -0.079
7,TIMMDC1 (UniProt Q9NPL8),inactive: -0.007
8,TIMM23 (UniProt O14925),inactive: 0.033
9,TJP2 isoform 7 (UniProt Q9UDY2),inactive: -0.04
10,TMEM185B (UniProt Q9H7F4),inactive: -0.06
11,TM9SF4 (UniProt Q92544),inactive: -0.005
12,TMEM168 (UniProt Q9H0V1),inactive: 0.081
13,TMEM164 (UniProt Q5U3C3),inactive: -0.166
14,THYN1 (UniProt Q9P016),inactive: 0.001
15,THNSL1 (UniProt Q8IYQ7),inactive: 0.026
16,TMBIM6 isoform 2 (UniProt P55061),inactive: -0.016
17,THOP1 (UniProt P52888),inactive: -0.03
18,TMCO6 isoform 2 (UniProt Q96DC7),inactive: -0.14
19,TMEM109 (UniProt Q9BVC6),inactive: -0.025
20,THOC5 (UniProt Q13769),inactive: -0.036

row,Target,log2 fold change
1,THOC1 (UniProt Q96FV9),inactive: -0.004
2,TLE4 isoform 3 (UniProt Q04727),inactive: -0.01
3,TGS1 (UniProt Q96RS0),inactive: -0.006
4,TIMM29 (UniProt Q9BSF4),inactive: -0.028
5,TLN2 (UniProt Q9Y4G6),inactive: -0.004
6,TMEM126A (UniProt Q9H061),inactive: -0.028
7,TMED5 (UniProt Q9Y3A6),inactive: -0.059
8,TMA7 (UniProt Q9Y2S6),inactive: -0.015
9,TIMM22 (UniProt Q9Y584),inactive: -0.036
10,TMEM161A (UniProt Q9NX61),inactive: -0.206
11,TIMM44 (UniProt O43615),inactive: 0.04
12,THEM4 (UniProt Q5T1C6),inactive: 0.008
13,TMED10 (UniProt P49755),inactive: -0.01
14,TMA16 (UniProt Q96EY4),inactive: -0.017
15,TIPRL (UniProt O75663),inactive: 0.005
16,TIMM17A (UniProt Q99595),inactive: 0.004
17,TIMM17B (UniProt O60830),inactive: 0.019
18,TIMM50 isoform 2 (UniProt Q3ZCQ8),inactive: -0.036
19,TMED8 (UniProt Q6PL24),inactive: 0.014
20,TIAL1 isoform 2 (UniProt Q01085),inactive: -0.013

# Compound: CS(=O)(=O)N1CCN(Cc2cc3nc(-c4cccc5[nH]ncc45)nc(N4CCOCC4)c3s2)CC1 [pictilisib]
# Assay: as above
# Procedure, shortened: as §1
row,Target,log2 fold change
1,TICAM2 isoform 2 (UniProt Q86XR7),inactive: -0.024
2,THUMPD2 (UniProt Q9BTF0),inactive: -0.054
3,TMCO1 (UniProt Q9UM00),inactive: -0.025
4,TGOLN2 isoform 7 (UniProt O43493),inactive: 0.001
5,TMBIM1 (UniProt Q969X1),inactive: -0.014
6,TMEM120A (UniProt Q9BXJ8),inactive: -0.134
7,TIMMDC1 (UniProt Q9NPL8),inactive: -0.014
8,TIMM23 (UniProt O14925),inactive: -0.029
9,TJP2 isoform 7 (UniProt Q9UDY2),inactive: -0.037
10,TMEM185B (UniProt Q9H7F4),inactive: -0.047
11,TM9SF4 (UniProt Q92544),inactive: 0.028
12,TMEM168 (UniProt Q9H0V1),inactive: -0.032
13,TMEM164 (UniProt Q5U3C3),inactive: 0.186
14,THYN1 (UniProt Q9P016),inactive: -0.027
15,THNSL1 (UniProt Q8IYQ7),inactive: -0.039
16,TMBIM6 isoform 2 (UniProt P55061),inactive: -0.033
17,THOP1 (UniProt P52888),inactive: -0.006
18,TMCO6 isoform 2 (UniProt Q96DC7),inactive: -0.025
19,TMEM109 (UniProt Q9BVC6),inactive: -0.004
20,THOC5 (UniProt Q13769),inactive: -0.007

row,Target,log2 fold change
1,THOC1 (UniProt Q96FV9),inactive: 0.008
2,TLE4 isoform 3 (UniProt Q04727),inactive: -0.022
3,TGS1 (UniProt Q96RS0),inactive: 0.002
4,TIMM29 (UniProt Q9BSF4),inactive: -0.016
5,TLN2 (UniProt Q9Y4G6),inactive: -0.02
6,TMEM126A (UniProt Q9H061),inactive: -0.011
7,TMED5 (UniProt Q9Y3A6),inactive: 0.001
8,TMA7 (UniProt Q9Y2S6),inactive: -0.006
9,TIMM22 (UniProt Q9Y584),inactive: -0.011
10,TMEM161A (UniProt Q9NX61),inactive: -0.038
11,TIMM44 (UniProt O43615),inactive: 0.022
12,THEM4 (UniProt Q5T1C6),inactive: 0.008
13,TMED10 (UniProt P49755),inactive: -0.05
14,TMA16 (UniProt Q96EY4),inactive: -0.022
15,TIPRL (UniProt O75663),inactive: -0.004
16,TIMM17A (UniProt Q99595),inactive: -0.014
17,TIMM17B (UniProt O60830),inactive: 0.036
18,TIMM50 isoform 2 (UniProt Q3ZCQ8),inactive: -0.013
19,TMED8 (UniProt Q6PL24),inactive: -0.044
20,TIAL1 isoform 2 (UniProt Q01085),inactive: -0.063
